Results reported in PubChem BioAssay AID540276 (National Center for Advancing Translational Sciences (NCATS), 2011).
“And” between values parts separate entries of the source, which are not always exact repeats. Identical values can stand only once. Out of some 300,000 compounds screened, about 5,400 (1.8%) were called active. The inconclusive results got no clear call from the source; some entries with a clear call stand among them for comparison. Calls come from the whole dose curve; tested in HEK293 cells. Where the call is inconclusive, the potency comes from a doubtful curve fit.

Test: qHTS for inhibitors of binding or entry into cells for Marburg Virus
Conditions: Marburg virus pseudotyped entry inhibition, cell reporter; activity change, negative = inhibition: at 37.8 µM (top of the series) unless noted
% is set by controls: 0 for no effect and ±100 for the full control effect; potency is the fitted concentration of half-maximal effect.

Compound | activity change, negative = inhibition | Potency
COc1ccc(CCNC(=O)Cn2cnc3c(cnn3C(C)(C)C)c2=O)cc1OC | inactive: 7.36% | –
Cn1cccc1-c1cc(C(=O)N/N=C/c2ccc(Cl)cc2)[nH]n1 | – | inconclusive: 12.6 µM [inhibitor, single point]
C=CCn1c(SCC(=O)Nc2ccc(-c3nc4ccc(C)cc4s3)cc2)nnc1-c1ccncc1 | – | inconclusive: 0.708 µM [activator, partial curve, poor fit]
COCCOC1CCN(C(=O)c2cc(COc3ccc(-n4cncn4)cc3)on2)CC1 | inactive: 1.78% | –
COc1cc(C)ccc1OCc1cc(C(=O)NCCN2CCOCC2)no1 | inactive: 13.2% | –
CCn1c2c(c(=N)c3c1CCC3)CCC2 | – | inconclusive: 17.8 µM [activator, partial curve, poor fit]
CCS(=O)(=O)N1Cc2ccccc2CC1C(=O)Nc1nnc(SCc2c(Cl)cccc2Cl)s1 (centres undefined) | – | inconclusive: 1.16 µM [activator, single point]
OC[C@H]1O[C@@H](n2cnc3cncnc32)[C@H](O)[C@@H]1O | – | inconclusive: 7.08 µM [inhibitor, full curve, poor fit] and inconclusive: 13 µM [inhibitor, partial curve, poor fit]
CCc1nc(SCC(=O)N2c3ccccc3Sc3ccccc32)c2ccccc2n1 | – | inconclusive: 29.1 µM [inhibitor, single point]
O=S(=O)(c1ccccc1)N1CC1c1ccccc1 (centres undefined) | – | inconclusive: 3.55 µM [activator, single point]
Cc1ccc(C#N)c(SCc2ccccc2[N+](=O)[O-])n1 | inactive: 0.626% | –
CCN(Cc1nc(-c2cccc(C)c2)no1)S(=O)(=O)c1ccc(C)cc1 | inactive: 11.2% [at 46.1 µM] | –
CCCNC(=O)CCNC(=O)c1ccc(C(C)(C)C)cc1 | – | inconclusive: 4.61 µM [activator, partial curve, poor fit]
COc1ccc(C(=O)Nc2ccc(-n3nncc3C(C)(C)C)cc2)cc1 | – | inconclusive: 2.24 µM [inhibitor, single point]
CC12C=C(C=Cc3ccccc3)C(C)(C1)C(c1ccccc1)CC2=O (centres undefined) | inactive: -4.12% [at 14.2 µM] | –
Cc1cccc(NC(=O)C(C)OC(=O)c2ccccc2NS(=O)(=O)c2cc(C)c(C)c([N+](=O)[O-])c2)c1 (centres undefined) | – | inconclusive: 0.708 µM [inhibitor, partial curve, poor fit]
Cc1ccc(/C=N/NC(=O)c2ccccc2OCc2cccc(Br)c2)o1 | – | inconclusive: 11.2 µM [inhibitor, single point]
Cc1ccc(C(=O)NCCc2c[nH]c3ccccc23)c(C)c1 | – | inconclusive: 0.794 µM [activator, full curve, poor fit]
CC(=O)OC1c2ccccc2C(=O)N1c1ccccc1C (centres undefined) | inactive: 2.18% | –
CN(CC(=O)Nc1cccc(S(=O)(=O)N2CCCC2)c1)CC(=O)Nc1ccc(Cl)c(C(F)(F)F)c1 | – | inconclusive: 31.6 µM [inhibitor, partial curve, poor fit]
COc1ccc(CCNC(=O)C2CCN(C(=O)c3ccc(Br)cc3)CC2)cc1 | – | inconclusive: 0.501 µM [inhibitor, single point]
O=C(/C=C/c1cccc(Cl)c1)N1CCC(Cc2ccccc2)CC1 | – | inconclusive: 2 µM [activator, full curve, poor fit]
CCOc1ccccc1-c1nc(-c2ccc(C)nc2OC)no1 | – | inconclusive: 0.058 µM [inhibitor, full curve, poor fit]
COc1cc2ccccc2cc1C(=O)OCC(=O)N(CC(C)C)c1c(N)n(Cc2ccccc2)c(=O)[nH]c1=O | inactive: -20.3% | –
CCC(C)NCCOCCOc1ccc(Cl)cc1Br (centres undefined) | – | inconclusive: 31.6 µM [inhibitor, single point]

Compound | activity change, negative = inhibition | Potency
COC(=O)CN1[C@@]2(C#N)CCCC[C@@H]2C[C@H]2CCCC[C@]21C#N | inactive: 15% | –
COc1ccc(NC2CCCN(C(=O)CN3C(=O)c4ccccc4C3=O)C2)cc1OC (centres undefined) | inactive: 25% [at 46.1 µM] | –
CC(=O)Nc1cc2cc(NS(=O)(=O)c3ccc(C)cc3)ccc2oc1=O | – | inconclusive: 2.51 µM [activator, single point]
Fc1ccc(-n2c(Cc3ccccc3)nnc2SCc2nc(-c3cccs3)no2)cc1 | inactive: -35.5% | –
CCN(CC)CCNC(=O)CS(=O)Cc1nc(-c2ccc(Cl)cc2)oc1C (centres undefined) | – | inconclusive: 32.6 µM [inhibitor, single point]
CCn1ccc(C(=O)NC2=NCCS2)n1 | – | inconclusive: 1.12 µM [activator, full curve, poor fit]
COc1ccc(C(C)=O)cc1COc1cccnc1[N+](=O)[O-] | – | inconclusive: 4.47 µM [inhibitor, full curve, poor fit]
CC1CCCCC1NC(=S)NC(=O)c1ccccc1Cl (centres undefined) | – | inconclusive: 5.62 µM [inhibitor, single point]
O=C(COC(=O)c1cc2ccccc2cc1O)NCc1ccccc1 | – | inconclusive: 35.5 µM [inhibitor, single point]
COc1cccc(CNC(=O)CC2C(=O)NCCN2Cc2ccoc2)c1OC (centres undefined) | – | inconclusive: 28.2 µM [inhibitor, single point]
Cc1ccc(C(=O)Nc2ncc(Cc3ccc(F)cc3)s2)o1 | – | inconclusive: 29.1 µM [inhibitor, partial curve, poor fit]
Cc1csc(NC(=O)Cc2nn(C)c(=O)c3ccccc23)n1 | – | inconclusive: 10 µM [inhibitor, partial curve, poor fit]
CC(C)(C)c1ccc(/C=C/C(=O)Nc2ccncc2)cc1 | – | inconclusive: 3.55 µM [inhibitor, partial curve, poor fit]
CC(C)(C)Cc1nnc(NC(=O)CCC2CCCCC2)s1 | inactive: 8.41% | –
CC(C)C(=O)NCCc1c[nH]c2ccccc12 | – | inconclusive: 0.562 µM [inhibitor, full curve, poor fit]
CCOC(=O)c1sc(=NC(=O)C2CC2)n(C)c1C | inactive: -0.799% [at 46.1 µM] | –
CCOC(=O)[C@H]1[C@H]2COc3cc(OC)ccc3[C@@H]2N2C(=O)CN(Cc3ccc(OC)cc3)C(=O)[C@@]12C | inactive: -0.241% | –
CN(C(=O)c1ccccc1OCc1ccc(F)cc1)c1c(N)n(Cc2ccccc2)c(=O)[nH]c1=O | inactive: 7.89% | –
FC(F)(F)c1ccccc1-n1c(-c2cnccn2)n[nH]c1=S | – | inconclusive: 35.5 µM [inhibitor, partial curve, poor fit]
Cc1nc(NC(=O)CSc2nccn2C)sc1C(=O)N(C)C | inactive: 5.24% | –
CCOC(=O)c1sc(NC(=O)COc2ccc3c(c2)OCO3)nc1C | – | inconclusive: 12.6 µM [inhibitor, partial curve, poor fit]
CCOC(=O)CSC1=C(C#N)C(=O)NC(c2ccc(OC)c(OC)c2)S1 (centres undefined) | inactive: 12.1% | –
COc1cccc(OC)c1NC(=O)Cn1nc(-c2ccc3c(c2)OCCO3)ccc1=O | inactive: 0.159% [at 46.1 µM] | –
CC(C)(C)NC(=O)C(=O)NNC(=O)c1ccc(C(C)(C)C)cc1 | inactive: -26.8% | –
COc1ccc(C2=C/C(=C\c3ccc(OC(C)=O)cc3)C(=O)O2)cc1 | inactive: 9.96% [at 46.1 µM] | –

Compound | activity change, negative = inhibition | Potency
COc1ccc(NC(=O)NNC(=O)c2ccc3ccccc3c2O)c(OC)c1 | inactive: -19% [at 46.1 µM] | –
OC(CN1c2ccccc2Sc2ccccc21)Cn1nnc2ccccc21 (centres undefined) | – | inconclusive: 29.1 µM [inhibitor, single point]
CCOC(=O)c1ccc(NC[C@@H](O)COc2ccccc2)cc1 | inactive: -1.63% [at 46.1 µM] | –
CC(=O)C(C)=O | inconclusive: 14.8% [inhibitor] | inconclusive: 29.1 µM [activator, single point]
CCCN(CC(=O)Nc1ccccc1C)C(=O)COC(=O)c1cnc(C)cn1 | inactive: -22.8% [at 46.1 µM] | –
COC(CCN(C)C)(c1ccccc1)c1ccccc1 | – | inconclusive: 20.6 µM [inhibitor, partial curve, poor fit]
COc1cccc(-n2c(C)nnc2SCC#N)c1 | inactive: 5.08% | –
COCCN1C(=O)c2oc3cc(C)cc(C)c3c(=O)c2C1c1cccc(O)c1 (centres undefined) | inactive: -23.9% [at 46.1 µM] | –
CCCn1c(SCC(=O)Nc2nc(C)cs2)nnc1-c1cccnc1 | inactive: -0.632% | –
CCOc1ccc(NC(=O)CN2CCC(n3cnc4cc(F)ccc43)CC2)cc1 | – | inconclusive: 25.1 µM [inhibitor, single point]
O=[N+]([O-])c1ccc2[nH]c(O)c(N=NC(=S)NCC3CCCO3)c2c1 (centres undefined) | inactive: 10.6% | –
Cc1ccc(NC(=O)c2cc(-c3ccc(C)o3)nc3ccccc23)nc1 | inactive: -6.53% | –
O=C(NC(=S)Nc1ccc(N2CCOCC2)cc1)c1cccc([N+](=O)[O-])c1 | inactive: 3.53% | –
COc1ccc(/C=N/N=C(/N)N[N+](=O)[O-])c(OC)c1 | inactive: 0.734% | –
COc1cccc([C@H]2Oc3ccc(OC)cc3C(=NO[C@@H](C)c3cn([C@H](CO)Cc4ccccc4)nn3)[C@H]2O)c1 | inactive: 5.06% [at 14.2 µM] | –
N#Cc1cccc(C(c2nnnn2C2CCCC2)N2CCCCCC2)c1 (centres undefined) | – | inconclusive: 22.4 µM [inhibitor, single point]
Cc1ccc(C(=O)OCC(=O)NCCNC(=O)COC(=O)c2ccc(C)s2)s1 | inactive: -9.83% [at 46.1 µM] | –
COc1ccc(C(=O)NCCn2cc(SCc3cccc(F)c3)c3ccccc32)cc1OC | – | inconclusive: 3.55 µM [inhibitor, partial curve, poor fit]
C/C(=N\NC(=O)c1ccncc1)c1cccc(NC(=O)c2ccc(C(C)(C)C)cc2)c1 | – | inconclusive: 35.5 µM [inhibitor, single point]
O=C(O)CC1COc2ccccc2N1C(=O)c1ccccc1Cl (centres undefined) | inactive: -5.59% [at 14.2 µM] | –
COc1ccc2oc(=O)c(C(=O)NCC3CCCO3)cc2c1 (centres undefined) | inactive: -0.0464% | –
CC(=O)OC[C@H]1O[C@H](CC=NOC[C@@H](O)COCc2ccco2)C=C[C@H]1OC(C)=O | inactive: 0.658% [at 14.2 µM] | –
COc1ccc(Br)cc1C(=O)Nc1ccc2oc(-c3cccnc3)nc2c1 | inactive: 3.6% [at 46.1 µM] | –
